No constants are given. Whether binding was seen depends on the method and setting. Binding seen in cells or lysates may run through a third protein. Some entries that bind do so weakly or less than the wild type.

Sequences of proteins named here, by UniProt entry; tags and fusion partners are left off. A change or cut given only in a name is not applied to a line headed by its entry.
UniProt Q9NYV8: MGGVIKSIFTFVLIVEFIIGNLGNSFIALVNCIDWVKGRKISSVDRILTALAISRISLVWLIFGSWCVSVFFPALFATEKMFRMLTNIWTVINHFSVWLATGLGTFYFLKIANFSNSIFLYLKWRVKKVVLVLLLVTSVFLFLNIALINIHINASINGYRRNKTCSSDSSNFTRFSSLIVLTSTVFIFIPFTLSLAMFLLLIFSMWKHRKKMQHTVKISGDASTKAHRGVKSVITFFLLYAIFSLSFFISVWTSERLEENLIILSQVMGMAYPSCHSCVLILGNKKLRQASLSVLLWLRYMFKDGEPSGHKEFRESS
UniProt P13569: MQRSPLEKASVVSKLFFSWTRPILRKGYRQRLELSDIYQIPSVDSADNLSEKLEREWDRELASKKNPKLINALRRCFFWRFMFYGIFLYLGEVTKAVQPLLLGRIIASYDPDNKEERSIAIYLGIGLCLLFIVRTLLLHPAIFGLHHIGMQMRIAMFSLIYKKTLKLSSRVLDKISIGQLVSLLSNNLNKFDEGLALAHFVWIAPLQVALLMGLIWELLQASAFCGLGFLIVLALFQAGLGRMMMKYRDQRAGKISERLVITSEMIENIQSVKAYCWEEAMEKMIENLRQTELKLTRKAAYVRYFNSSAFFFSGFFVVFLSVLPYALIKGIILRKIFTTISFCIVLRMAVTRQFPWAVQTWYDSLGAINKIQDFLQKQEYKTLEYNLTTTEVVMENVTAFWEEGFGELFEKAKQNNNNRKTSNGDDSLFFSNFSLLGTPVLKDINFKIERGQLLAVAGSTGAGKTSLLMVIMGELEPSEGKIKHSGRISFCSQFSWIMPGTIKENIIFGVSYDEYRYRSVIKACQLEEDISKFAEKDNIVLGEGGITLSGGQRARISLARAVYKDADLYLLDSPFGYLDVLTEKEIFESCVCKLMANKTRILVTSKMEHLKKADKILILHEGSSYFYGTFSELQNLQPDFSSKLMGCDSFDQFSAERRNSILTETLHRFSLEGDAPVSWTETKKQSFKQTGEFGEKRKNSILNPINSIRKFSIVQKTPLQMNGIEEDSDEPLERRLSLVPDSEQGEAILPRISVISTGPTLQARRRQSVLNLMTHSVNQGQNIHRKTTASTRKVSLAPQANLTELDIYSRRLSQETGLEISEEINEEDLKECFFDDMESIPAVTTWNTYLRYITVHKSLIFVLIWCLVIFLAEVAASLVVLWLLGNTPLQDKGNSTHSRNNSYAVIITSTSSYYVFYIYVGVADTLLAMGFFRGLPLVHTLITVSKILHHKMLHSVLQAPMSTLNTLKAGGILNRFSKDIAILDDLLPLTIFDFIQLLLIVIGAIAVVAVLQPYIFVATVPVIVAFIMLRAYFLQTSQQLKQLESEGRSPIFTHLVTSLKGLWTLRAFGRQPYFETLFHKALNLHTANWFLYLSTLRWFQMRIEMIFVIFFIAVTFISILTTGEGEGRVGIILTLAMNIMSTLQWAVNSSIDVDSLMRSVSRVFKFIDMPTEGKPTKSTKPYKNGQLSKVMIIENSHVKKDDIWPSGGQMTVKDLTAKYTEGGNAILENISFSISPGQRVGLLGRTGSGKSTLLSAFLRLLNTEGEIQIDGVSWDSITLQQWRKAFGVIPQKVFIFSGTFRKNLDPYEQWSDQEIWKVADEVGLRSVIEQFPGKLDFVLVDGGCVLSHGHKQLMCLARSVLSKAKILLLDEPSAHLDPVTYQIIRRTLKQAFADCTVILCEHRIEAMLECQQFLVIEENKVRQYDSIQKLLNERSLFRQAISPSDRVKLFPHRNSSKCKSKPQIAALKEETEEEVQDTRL

For assay [1], the target named is T2R14 tagged with a C-terminus Nanoluciferase (UniProt Q9NYV8). Kind of assay: FRET or BRET. (In BRET a luciferase serves as donor, and the signal depends on an acceptor being close.)
The target of assay [2] is T2R14 of the SPASM sensors (UniProt Q9NYV8). Kind of assay: split reporter.

With “CFTR with EYFP at the N-terminus (from UniProt P13569 1-1480)”, the binding entry in assay [1] is recorded as “binds”.

Turning to “CFTR NBD1+R-domain (351-850) of the SPASM sensor (from UniProt P13569 351-850) (domain or fragment)”, the binding entry in assay [2] is “no binding”.

As for “CFTR NBD2/C-terminus (1151-1480) of the sensor T2R14-SPASM-NBD2/C-terminus (from UniProt P13569 1151-1480) (domain or fragment)”, the binding result in assay [2] is “binds”.

“CFTR R domain (595-860) of the SPASM sensor (from UniProt P13569 595-860) (domain or fragment)”: the binding entry in assay [2] is listed as “no binding”.

The values are drawn from paper doi:10.1101/2024.04.25.591203.
